{"sequences": {"note": "Amino acid sequences for entries named in this document (tags omitted). Residues count along the entry.", "UniProt Q9QUN7, residues 25-784": "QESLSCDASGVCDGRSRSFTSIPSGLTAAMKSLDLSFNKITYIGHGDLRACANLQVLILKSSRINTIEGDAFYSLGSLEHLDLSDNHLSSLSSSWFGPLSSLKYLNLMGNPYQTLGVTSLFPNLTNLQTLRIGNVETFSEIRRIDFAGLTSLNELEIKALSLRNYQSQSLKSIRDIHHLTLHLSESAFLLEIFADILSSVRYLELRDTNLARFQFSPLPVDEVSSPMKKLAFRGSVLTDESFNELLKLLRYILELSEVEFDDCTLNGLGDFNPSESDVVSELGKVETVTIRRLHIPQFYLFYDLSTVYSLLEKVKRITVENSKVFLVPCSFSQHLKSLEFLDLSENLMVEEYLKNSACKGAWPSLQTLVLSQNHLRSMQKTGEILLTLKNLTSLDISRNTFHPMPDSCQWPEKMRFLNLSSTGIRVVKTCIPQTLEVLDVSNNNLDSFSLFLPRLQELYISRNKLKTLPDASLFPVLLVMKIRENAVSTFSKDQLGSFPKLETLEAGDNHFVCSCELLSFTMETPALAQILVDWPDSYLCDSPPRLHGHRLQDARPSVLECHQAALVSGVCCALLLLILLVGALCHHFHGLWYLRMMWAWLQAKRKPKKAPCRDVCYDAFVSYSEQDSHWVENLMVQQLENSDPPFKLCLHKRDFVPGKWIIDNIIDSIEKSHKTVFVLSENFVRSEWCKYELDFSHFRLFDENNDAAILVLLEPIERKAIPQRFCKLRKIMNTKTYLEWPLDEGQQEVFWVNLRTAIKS", "UniProt Q9QUK6, residues 26-835": "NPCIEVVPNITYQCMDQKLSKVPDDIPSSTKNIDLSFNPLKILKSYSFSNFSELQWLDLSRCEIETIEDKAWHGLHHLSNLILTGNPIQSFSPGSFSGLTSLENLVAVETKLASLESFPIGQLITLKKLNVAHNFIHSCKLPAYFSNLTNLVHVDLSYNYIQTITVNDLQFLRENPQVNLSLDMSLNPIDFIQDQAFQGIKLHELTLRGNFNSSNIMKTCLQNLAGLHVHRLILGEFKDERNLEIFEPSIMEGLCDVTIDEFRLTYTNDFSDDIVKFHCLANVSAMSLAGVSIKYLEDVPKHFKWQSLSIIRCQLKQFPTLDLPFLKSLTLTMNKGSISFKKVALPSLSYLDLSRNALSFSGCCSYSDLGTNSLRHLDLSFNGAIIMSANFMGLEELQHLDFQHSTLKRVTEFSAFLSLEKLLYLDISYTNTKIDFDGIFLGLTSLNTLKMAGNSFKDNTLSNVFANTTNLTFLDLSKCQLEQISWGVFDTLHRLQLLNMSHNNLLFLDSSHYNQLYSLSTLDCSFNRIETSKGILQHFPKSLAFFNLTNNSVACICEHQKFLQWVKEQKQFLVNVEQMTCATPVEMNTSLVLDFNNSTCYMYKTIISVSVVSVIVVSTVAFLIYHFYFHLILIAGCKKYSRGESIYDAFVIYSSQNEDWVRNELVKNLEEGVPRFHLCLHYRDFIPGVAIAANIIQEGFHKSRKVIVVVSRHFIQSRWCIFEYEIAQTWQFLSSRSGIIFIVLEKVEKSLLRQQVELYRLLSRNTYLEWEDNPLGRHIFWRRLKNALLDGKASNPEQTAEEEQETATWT", "UniProt P08113, residues 22-802": "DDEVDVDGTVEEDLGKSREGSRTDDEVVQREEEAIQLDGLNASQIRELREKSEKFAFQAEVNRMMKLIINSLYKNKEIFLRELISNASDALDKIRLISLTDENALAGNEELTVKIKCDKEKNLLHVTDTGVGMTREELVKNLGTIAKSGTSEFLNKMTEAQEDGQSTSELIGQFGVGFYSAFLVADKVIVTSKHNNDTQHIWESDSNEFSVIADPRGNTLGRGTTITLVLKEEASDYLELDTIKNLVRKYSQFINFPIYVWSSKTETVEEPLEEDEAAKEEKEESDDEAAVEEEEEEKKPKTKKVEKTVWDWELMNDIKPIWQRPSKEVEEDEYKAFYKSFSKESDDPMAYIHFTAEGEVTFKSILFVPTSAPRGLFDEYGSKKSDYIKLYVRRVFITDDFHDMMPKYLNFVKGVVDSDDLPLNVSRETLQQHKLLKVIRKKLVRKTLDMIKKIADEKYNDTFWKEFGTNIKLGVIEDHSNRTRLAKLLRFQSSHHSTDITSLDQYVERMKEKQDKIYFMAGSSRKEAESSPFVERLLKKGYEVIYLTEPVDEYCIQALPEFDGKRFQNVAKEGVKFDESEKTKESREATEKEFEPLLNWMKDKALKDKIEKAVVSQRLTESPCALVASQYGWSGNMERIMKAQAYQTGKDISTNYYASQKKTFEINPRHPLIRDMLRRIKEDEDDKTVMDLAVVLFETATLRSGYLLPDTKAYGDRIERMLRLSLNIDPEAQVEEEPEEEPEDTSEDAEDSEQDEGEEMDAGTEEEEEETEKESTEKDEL"}, "source": "paper PMC3715452", "key": {"[1]": {"molecular_target": "TLR2 (mouse (endogenous in mouse Tregs)) (UniProt Q9QUN7)", "experiment": "flow cytometry on cells; freshly isolated Tregs incubated with FITC-gp96, with or without excess unlabeled gp96, MSA, TLR2 Ab or TLR4 Ab; only the binder purified"}, "[2]": {"molecular_target": "TLR4 (mouse (endogenous in mouse Tregs)) (UniProt Q9QUK6)", "experiment": "flow cytometry on cells; freshly isolated Tregs incubated with FITC-gp96, with or without excess unlabeled gp96, MSA, TLR2 Ab or TLR4 Ab; only the binder purified"}, "[3]": {"molecular_target": "GST-fused gp96 (UniProt P08113)", "experiment": "pull-down; GST-gp96 or GST mixed with Treg lysates overnight at 4 C, Glutathione Sepharose 2 h, immunoblotting of TLR2 and TLR4; only the target purified"}, "[4]": {"molecular_target": "TLR2 (mouse (endogenous in mouse Tregs)) (UniProt Q9QUN7)", "experiment": "co-IP; TLR Abs or control Ab added to Treg lysates overnight at 4 C, protein G beads 2 h, gp96 detected by Western blotting"}, "[5]": {"molecular_target": "TLR4 (mouse (endogenous in mouse Tregs)) (UniProt Q9QUK6)", "experiment": "co-IP; TLR Abs or control Ab added to Treg lysates overnight at 4 C, protein G beads 2 h, gp96 detected by Western blotting"}}, "note": "No constants are given. Whether binding was seen depends on the method and setting. For some assays here: In cells and extracts the contact can be indirect. Some results given as binding are weak or reduced against the parent protein; the word gives no strength."}
{"substance": "FITC-labeled gp96 (from UniProt P08113 22-802)", "values": [{"measurement": "binding", "setting": "[1]", "value": "binds"}, {"measurement": "binding", "setting": "[2]", "value": "binds"}]}
{"substance": "TLR4 (from UniProt Q9QUK6 26-835) (receptor)", "values": [{"measurement": "binding", "setting": "[3]", "value": "binds"}]}
{"substance": "gp96 (in Treg lysates) (from UniProt P08113 22-802)", "values": [{"measurement": "binding", "setting": "[4]", "value": "binds"}, {"measurement": "binding", "setting": "[5]", "value": "binds"}]}
